No constants are given. Whether binding was seen depends on the method and setting. Some entries that bind do so weakly or less than the wild type.
Tests used:
[1] = biological target: T1, human B7H3 expressed on cell surface (human, UniProt Q5ZPR3 29-534); experiment: cell avidity (Lumicks Cell Avidity Analyzer), CAR-T cells on target cells
T1 construct: whole, on cells; also called B7-H3 on LAN-1, Kelly, IMR-32 and other B7-H3 positive target cell lines
T1 sequence (looked up): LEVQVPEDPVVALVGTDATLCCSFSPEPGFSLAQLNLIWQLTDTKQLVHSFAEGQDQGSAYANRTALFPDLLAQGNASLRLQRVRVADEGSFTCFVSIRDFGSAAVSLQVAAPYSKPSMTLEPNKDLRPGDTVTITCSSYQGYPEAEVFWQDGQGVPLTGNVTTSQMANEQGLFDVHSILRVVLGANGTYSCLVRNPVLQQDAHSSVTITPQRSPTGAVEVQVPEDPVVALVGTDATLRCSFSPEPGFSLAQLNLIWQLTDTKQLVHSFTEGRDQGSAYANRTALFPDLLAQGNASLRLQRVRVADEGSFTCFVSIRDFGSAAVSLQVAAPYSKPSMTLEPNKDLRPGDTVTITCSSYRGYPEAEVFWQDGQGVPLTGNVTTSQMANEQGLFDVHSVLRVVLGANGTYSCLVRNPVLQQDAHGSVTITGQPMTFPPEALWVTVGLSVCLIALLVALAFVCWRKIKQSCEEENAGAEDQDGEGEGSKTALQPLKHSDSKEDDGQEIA

[2] = biological target: T1, human B7H3 expressed on cell surface; experiment: cell avidity (Lumicks acoustic force), CAR-T cells on target cells with a range of B7H3 densities

B1: TE9-CD8H/Tm-CD28-CD3z chimeric antigen receptor (protein, not shown: small tags and cut ends)
chain: QVQLQQSGAALVKPGTSVKLSCKASGYTFTSYWMHWVKQRPGQGLEWIGMIHPKSGSVDYNEKFTNKATLTGDKSSGTAYMQLSSLTSEDSAVYYCARGGYGSPFDYWGQGTTVTVSSGGGGSGGGGSGGGGSENVLTQSPAIMSASPGEKVTMTCSASSSVSYMYWYQQKPGSSPRLLIYRTSNLASGVPARFSGSGSGTSYSLTISSMEAEDAATYYCQQWSSNPPTFGGGTKLEIK
[1]
  binding: binds
[2]
  binding: binds

Reference: patent US20250382369A1 (UCL BUSINESS, published 2025)
